Laboratory results reported in PubChem BioAssay AID2685 (National Center for Advancing Translational Sciences (NCATS), 2010).
This is one part of the list. Further columns of the screen follow, without active or inactive calls. The list favours compounds with an active or inconclusive main result. Potencies come from curve fits of mixed quality, noted in brackets. Where a SMILES comes first, the peptide text is derived from it. [ ]: non-standard residue; d: D form. The star is where a group is joined. ξ: configuration not given here. Cbz = O=C(OCc1ccccc1)*; ξL = CC(C)CC(N)C(=O)O; ξP = O=C(O)C1CCCN1

Experiment: qHTS Assay for Lipid Storage Modulators in Drosophila S3 Cells;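 as to cell number change: cells counted by Cell Tracker Red CMTPX staining in the red channel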
Conditions: BODIPY lipid droplet fluorescence, 18-24 h; for cell number change: measured here: cell count max response, cells fed with added oleic acid
Outline: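 Drosophila S3 cells got compounds at several concentrations plus oleic acid (400 uM solution). Laser-scanning cytometry with 488 nm excitation read lipid droplets at 500-530 nm and cells at 575-640 nm. Percent activity was relative to 20 uM Triacsin C.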

[1] = measured here: cell number channel AC50, cells fed with added oleic acid
[2] = measured here: lipid fluorescence (Fed channel) AC50, cells fed with added oleic acid

Row | Compound | AC50 [1] | cell number change [%] | AC50 [2]
1 | COC(=O)c1cc(C(=O)NCC2CCCCC2)cc([N+](=O)[O-])c1 | 2.59 µM [rising, single point] | – | –
2 | COc1ccc(C2=NN(c3ccc(C=O)cc3)C(c3ccccc3)C2)cc1 (configuration not stated) | – | 0.901 | –
3 | CN(C(=O)CSc1nc2c(c(=O)[nH]1)CCCC2)C1CCCCC1 | 1.3 µM [falling, full curve] | – | 0.13 µM [falling, full curve, poor fit]
4 | COc1ccc(OC)c(-c2csc(NC(=O)C3=COCCO3)n2)c1 | 1.84 µM [rising, partial curve] | – | –
5 | O=C(O)c1cccc(N2CCCC2)c1 | – | -0.79 | 29.1 µM [falling, partial curve, poor fit]
6 | CC(C)NC(=S)N1CCN(C/C=C/c2ccccc2)CC1 | – | – | 0.651 µM [rising, partial curve, poor fit]
7 | Cc1ccc(S(=O)(=O)NCCN2CCOCC2)cc1 | 0.116 µM [rising, full curve, poor fit] | 8.42 | 0.103 µM [rising, partial curve, poor fit]
8 | COc1ccc(NC(C)C(=O)N/N=C/c2ccccc2OCc2cccc(Br)c2)cc1 (configuration not stated) | – | -6.69 | 0.082 µM [rising, full curve, poor fit]
9 | CC(C)CC(NC(=O)C1CCCN1C(=O)[C@@H](C)NC(=O)OCc1ccccc1)C(=O)NCC(N)=O (some centres not stated) (Cbz-[dA][ξP][ξL]G-NH2) | – | -27.8 | 29.1 µM [rising, partial curve, poor fit]
10 | CCOC(=O)C(NC(=O)c1ccc(OC)cc1)(Nc1cc(C)on1)C(F)(F)F (configuration not stated) | – | -1.69 | 2.06 µM [rising, partial curve]
11 | Cn1cnnc1SCC(=O)NC(=O)NC1CCCC1 | – | 8.71 | 6.51 µM [falling, single point]
12 | CC1(C)CC(=O)C(C(c2ccc(F)cc2)C2C(=O)CC(C)(C)CC2=O)C(=O)C1 | – | -3.19 | 6.51 µM [falling, single point]
13 | CC(C)NCCCOc1ccc(C(C)(C)c2ccccc2)cc1 | 29.1 µM [falling, single point] | -55.3 | 5.17 µM [falling, full curve]
14 | CCc1ccc(-c2cc(C(=O)Nc3c(C)n(C)n(-c4ccccc4)c3=O)c3ccccc3n2)s1 | – | -2.93 | –
15 | COc1ccccc1/C=C/C(=O)c1ccc(Cl)cc1 | – | – | 6.51 µM [falling, single point]
16 | N#Cc1c(-c2ccco2)ccn(Cc2cccc(F)c2)c1=O | – | 25.9 | 6.51 µM [falling, single point]
17 | COc1cc(OC)cc(C(=O)NCC2CCCN(C(=O)c3csc(C(C)C)n3)C2)c1 (configuration not stated) | – | -17.3 | –
18 | COc1cccc(-c2c(NC(C)=O)n(C)c3ccccc3c2=O)c1 | – | -14.4 | –
19 | O=C(CSc1nc(-c2ccccc2)cs1)Nc1nccs1 | 14.6 µM [falling, partial curve, poor fit] | -49.1 | –
20 | CCc1[nH]c(=O)[nH]c1C(C)S(=O)(=O)c1ccc(C)cc1 (configuration not stated) | 7.31 µM [falling, partial curve, poor fit] | -39.5 | 18.4 µM [falling, partial curve]
21 | O=C(O)CN1CCCCCC1=O | – | 113 | –
22 | COc1ccc(Br)cc1CN(C)C(=O)Cc1ccc(OC)c(S(=O)(=O)N2CCOCC2)c1 | – | – | 18.4 µM [falling, partial curve]

Row | Compound | AC50 [1] | cell number change [%] | AC50 [2]
23 | Cc1oc(-c2cccc3ccccc23)nc1CN1CCN(c2ncnc3ccccc23)CC1 | – | -28.7 | 29.1 µM [falling, single point]
24 | CCc1ccc(NC(=O)c2ccc(-n3cncn3)c([N+](=O)[O-])c2)cc1 | – | 25.5 | –
25 | C=CCC1NS(=O)(=O)OCC1C(C)C (configuration not stated) | – | 26.2 | 29.1 µM [rising, single point]
26 | CCC1=Nc2cc(C(=O)NCCCN3CCOCC3)ccc2Sc2ccccc21 | – | 8.96 | 20.6 µM [rising, single point]
27 | O=C(O)c1ccccc1C(=O)Nc1c(-c2ccccc2)nc2ccccn12 | – | -0.549 | –
28 | COc1ccc(CCNC(=O)COC(=O)C23CC4CC(CC(Br)(C4)C2)C3)cc1 | 23.1 µM [falling, partial curve] | -37.2 | 0.13 µM [falling, full curve, poor fit]
29 | O=C(O)c1cccc(NC(=O)c2cccc(S(=O)(=O)N3CCCCC3)c2)c1 | 29.1 µM [falling, single point] | -36 | 16.4 µM [falling, single point]
30 | COc1ccccc1CNC(=O)COC(=O)CNS(=O)(=O)c1ccc(C)cc1 | – | 21.6 | –
31 | COc1ccc(CC(=O)N/N=C(\C)CC(=O)Nc2cccc(F)c2)cc1 | – | -27.6 | –
32 | O=C(CNS(=O)(=O)/C=C/c1ccccc1)OC1CCOC1=O (configuration not stated) | – | -13.4 | –
33 | COc1ccc(N(CC(=O)NC2CCCCC2)C(=O)c2snc(C(N)=O)c2N)cc1 | – | 12.6 | 6.51 µM [rising, single point]
34 | COc1cc(S(=O)(=O)N2CCOCC2)cc(C(=O)c2nccn2C)c1OC | – | -10 | 2.31 µM [falling, partial curve, poor fit]
35 | CCC1CCCCN1S(=O)(=O)c1ccc2c(c1)CCN2C(C)=O (configuration not stated) | – | 8.87 | –
36 | C=CCC(=O)N1CCCC(CO)(Cc2ccc(F)cc2F)C1 (configuration not stated) | – | 3.81 | –
37 | Cc1ccc(-n2c(C)nnc2SC(C)C(=O)N2CCCC2)cc1 (configuration not stated) | – | 10.5 | –
38 | COc1cccc(/C=C/C(=O)Nc2ccc3c(c2)OCCO3)c1OC | – | 5.86 | –
39 | CCC(CC)NC(=O)CON=C1c2ccccc2-c2ccccc21 | – | -19.5 | 16.4 µM [falling, single point]
40 | O=C1OC(/C=C/c2ccccc2)=NC/1=C/C=C/c1ccccc1 | 0.116 µM [falling, full curve, poor fit] | 18.1 | 0.092 µM [falling, single point]
41 | Cc1nc2nc(N)nn2c(C)c1C/C=C/c1ccccc1 | 3.66 µM [rising, full curve, poor fit] | 39.5 | –
42 | Cc1ccc(C(=O)N2CCN(c3ccc(C(F)(F)F)cn3)CC2)c(C)c1 | – | -7.46 | –
43 | O=C(CNC(=O)c1ccccc1)N=Nc1c(O)[nH]c2ccc(Br)cc12 | 25.9 µM [rising, single point] | 31.2 | –
44 | O=c1[nH]c2ccc(Cl)cc2c(-c2ccccc2)c1CN1CCOCC1 | 14.6 µM [falling, single point] | -31.5 | –

Row | Compound | AC50 [1] | cell number change [%] | AC50 [2]
45 | COc1cc(C(=O)NCCSc2ccc(Br)cc2)cc(OC)c1OC | 0.461 µM [rising, full curve, poor fit] | 35.3 | –
46 | Cc1ccccc1N=CC1=C(O)c2ccccc2C1=O | 6.51 µM [falling, single point] | – | –
47 | COc1ccc(NC(=O)Nc2ccc(N3CCOCC3)c3nonc23)c(OC)c1 | 20.6 µM [falling, single point] | -38.9 | 16.4 µM [falling, single point]
48 | COc1ccc(C2c3c(c(C)c(C)oc3=O)Oc3c(C)c(C)oc(=O)c32)cc1 | – | 6.63 | 6.51 µM [rising, full curve, poor fit]
49 | Cc1ccc(SCC(=O)N2N=CCC2c2ccccc2)cc1 (configuration not stated) | – | -30.9 | –
50 | O=C(O)c1cccc(N2CCCCS2(=O)=O)c1 | – | -16.8 | 0.259 µM [falling, full curve]
51 | CC(C)(C)OC(=O)CNC(=O)c1nc[nH]c1C(=O)NCc1ccccc1 | – | 2.4 | 32.6 µM [falling, single point]
52 | CC1(C)CC(=O)C2=C(C1)N(N1CCOCC1)C(N)=C(C#N)C2c1cccnc1 (configuration not stated) | – | 27.4 | –
53 | CC1CC(C)CN(C(=O)CCC(=O)Nc2nnc(C(C)C)s2)C1 (configuration not stated) | – | – | 6.51 µM [rising, single point]
54 | CC1(C(=O)N(CC(=O)NC2CCCC2)Cc2ccco2)CC(=O)N=C2C=CC=CN21 (configuration not stated) | – | -18.5 | 4.11 µM [falling, full curve, poor fit]
55 | Nc1ccc2nc(N3CCOCC3)sc2c1 | 14.6 µM [rising, partial curve, poor fit] | 62.8 | –
56 | C/C(=N/NC(=O)c1ccc(-c2ccccc2)cc1)c1cc(O)cc(O)c1 | – | -13.9 | 1.16 µM [falling, full curve, poor fit]
57 | O=C(/C=C/c1ccccc1)Nc1ccc(C(=O)N2CCCCC2)cc1 | – | -21.3 | 29.1 µM [falling, single point]
58 | O=c1c(-c2ccc(Cl)cc2)[n+]([O-])c2ccccc2n1O | 3.66 µM [falling, single point] | – | –
59 | Cc1ccc(C(=O)Nc2nc(C)c(C(=O)Nc3ccc4c(c3)CCC4)s2)cc1 | – | 11.7 | 0.291 µM [rising, full curve, poor fit]
60 | CCCN(CCC)CCNC(=O)c1cn(C)c(=O)c2c1c1ccccc1n2C | – | 4.17 | 3.26 µM [falling, full curve]
61 | O=C(Cn1nc(Cc2cccnc2)c2ccccc2c1=O)Nc1ccc2c(c1)OCO2 | – | – | 0.517 µM [rising, single point]
62 | O=C1CN(C(=O)COC(=O)c2cccnc2Cl)c2ccccc2N1 | – | 31.9 | 6.51 µM [falling, single point]
63 | C1CCCN(c2nc3nonc3nc2N2CCCCCC2)CC1 | 0.116 µM [falling, full curve, poor fit] | -1.76 | –
64 | CC(C)CCOc1ccc(C(=O)C[N+]2(C)CCOCC2)cc1 | – | -1.32 | 2.91 µM [falling, partial curve]
65 | CC(=O)Nc1cccc(C(=O)NNC(=O)c2ccccc2-n2cccc2)c1 | 20.6 µM [rising, single point] | 32.9 | 18.4 µM [rising, partial curve, poor fit]

Reformatted in markdown: five of the compounds above.

| Row | Compound | AC50 [1] | cell number change [%] | AC50 [2] |
| --- | --- | --- | --- | --- |
| 13 | CC(C)NCCCOc1ccc(C(C)(C)c2ccccc2)cc1 | 29.1 µM [falling, single point] | -55.3 | 5.17 µM [falling, full curve] |
| 34 | COc1cc(S(=O)(=O)N2CCOCC2)cc(C(=O)c2nccn2C)c1OC | – | -10 | 2.31 µM [falling, partial curve, poor fit] |
| 49 | Cc1ccc(SCC(=O)N2N=CCC2c2ccccc2)cc1 (configuration not stated) | – | -30.9 | – |
| 54 | CC1(C(=O)N(CC(=O)NC2CCCC2)Cc2ccco2)CC(=O)N=C2C=CC=CN21 (configuration not stated) | – | -18.5 | 4.11 µM [falling, full curve, poor fit] |
| 57 | O=C(/C=C/c1ccccc1)Nc1ccc(C(=O)N2CCCCC2)cc1 | – | -21.3 | 29.1 µM [falling, single point] |
